# Laboratory results from patent publication US20240279171A1, “METHODS FOR PREPARING CRYSTALLINE FORMS OF AMISULPRIDE” (SUNOVION PHARMACEUTICALS INC., priority 2021, published 2024).
# Some of these results come from one statement about several compounds together.
# What was measured:
# [1] = Dynamic vapor sorption (DVS) water sorption isotherm; type: physicochemical; settings: 25° C.; Tables 9A and 9B
# Excerpt: In various embodiments, the hygroscopicity of a compound is characterized by dynamic vapor sorption (DVS). DVS is a gravimetric technique that measures how much of a solvent is absorbed by a sample by varying the vapor concentration surrounding the sample (e.g., relative humidity) and measuring the change in mass. DVS was used herein to generate water sorption isotherms, which represent the equilibrium amount of water vapor adsorbed and/or absorbed as a function of steady state relative water vapor pressure at a constant temperature.
# Dynamic vapor sorption (DVS) isotherms were generated using a VTI SGA-100 Symmetric Vapor Sorption Analyzer. Analysis included pre-analysis drying at 25° C. with equilibrium criteria of 0.0000 wt % change in 5 minutes or a maximum of 180 minutes. Equilibrium criteria were the lesser of 0.01 wt % change in 5 minutes or 180 minutes at each RH step. […] Analysis was repeated for each sample in consecutive analyses (i.e., the sample was not removed from analyzer between analyses).
# Tables 9A and 9B presents the DVS water sorption for crystalline enantiomeric amisulpride of Form A and Form A′ shown in FIG. 7A.
# [2] = 25° C. scanned over 0 to 95% relative humidity, DVS; '738 patent; cited from earlier work
SMILES,maximum mass change (DVS water sorption) [1],maximum mass change in water sorption isotherms [2] [%]
"CCN1CCC[C@H]1CNC(=O)c1cc(S(=O)(=O)CC)c(N)cc1OC [(S)-amisulpride Form A′, (S)-4-Amino-N-[(1-ethyl-2-pyrrolidinyl)methyl]-5-(ethylsulfonyl)-2-methoxybenzamide]",less than 0.15%,< 0.5
"CCN1CCC[C@@H]1CNC(=O)c1cc(S(=O)(=O)CC)c(N)cc1OC [(R)-amisulpride Form A, (R)-4-Amino-N-[(1-ethyl-2-pyrrolidinyl)methyl]-5-(ethylsulfonyl)-2-methoxybenzamide]",less than 0.15%,< 0.5
